# Experimental data from the supplement of paper PMC12067093, “Discovery and optimisation of a covalent ligand for TRIM25 and its application to targeted protein ubiquitination” (Chemical Science, 2025).
# Chains of the proteins cited; added tags and fusions are not shown. Lines headed by an entry give the natural chain unless they say otherwise; changes in a name come on top.
# UniProt Q92643: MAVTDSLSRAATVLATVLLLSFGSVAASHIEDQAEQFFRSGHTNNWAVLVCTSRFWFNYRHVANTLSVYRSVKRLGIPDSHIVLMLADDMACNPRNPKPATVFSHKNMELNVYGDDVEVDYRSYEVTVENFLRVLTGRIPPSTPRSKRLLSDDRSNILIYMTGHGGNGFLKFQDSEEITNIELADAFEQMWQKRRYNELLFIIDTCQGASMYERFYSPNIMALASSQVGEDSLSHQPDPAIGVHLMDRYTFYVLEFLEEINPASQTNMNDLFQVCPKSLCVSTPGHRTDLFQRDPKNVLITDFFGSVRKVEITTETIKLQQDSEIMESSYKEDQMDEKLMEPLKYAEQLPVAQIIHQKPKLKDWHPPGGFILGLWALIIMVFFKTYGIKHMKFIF
# The other results are listed elsewhere or left out.
# Key:
# [1] = biological target: PIGK_Q92643_92_LGIPDSHIVLMLADDMACNPR (UniProt Q92643); assay: probe-labelled cysteine peptide fold change vs DMSO (competition) (log2 fold change); higher = less target engagement (more negative = stronger competition); details: THP-1, incubation time: 4 h
# [2] = biological target: PIGK_Q92643_92_RLGIPDSHIVLMLADDMACNPR (UniProt Q92643); assay: as above; details: THP-1, incubation time: 4 h
# 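Further: competitive chemoproteomic profiling in live THP-1 cells with an iodoacetamide desthiobiotin (IA-DTB) probe, comparing probe-labelled peptide intensities in compound-treated cells against DMSO-treated controls.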
structure (smiles),measurement,setting,value
CC1Cc2ccccc2N1C(=O)C1CCCN(C(=O)CCl)C1 (mixture of isomers) [TRIM25 ligand 11 (diastereomer mixture)],probe-labelled cysteine peptide fold change,[1]; 10 µM,0.0738
same,probe-labelled cysteine peptide fold change,[1]; 50 µM,-0.172
same,probe-labelled cysteine peptide fold change,[2]; 10 µM,0.0462
same,probe-labelled cysteine peptide fold change,[2]; 50 µM,0.012
